Reference: PubChem BioAssay AID1224826 (NIAID, 2016)

- Assay: 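Regulators of Tlr4 signalling leading to Tnf-alpha expression in macrophages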 (primary screen)
- Cell system: RAW264.7 G9 macrophages from mouse bearing reporters for p65 (GFP) and the Tnf promoter (mCherry)
- Knock-down reagent: siRNA pool against mouse genes, 100 nM
- Timing: 16 h of LPS stimulation, after 2 days of siRNA transfection
- Treatment: bacterial lipopolysaccharide (Salmonella minnesota R595), 10 ng/ml
- Measurement: 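Nuclear mCherry signal of the Tnf promoter reporter measured by imaging after background removal, scaled to each plate median and turned into robust z-scores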
- Reading the numbers: Tnf reporter robust z-score: higher = stronger Tnf promoter reporter signal after LPS
- Active means: 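a well counts as active at a score of -1.3 or below (Tlr4 knock-down control median) or above 3 (raised signal); controls and wells holding fewer than 50 cells are excluded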
- Meaning of the calls: active = Tnf reporter clearly lowered or raised; inactive = no clear change in Tnf reporter
The whole screen tested about 17,000 reagents; shown is a random part of them. About 1,110 of all reagents (6.6%) were called active. 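Active means lowered or raised reporter signal; replicate intensities are raw and not normalised per plate.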 Not all columns of the deposit are shown.

{"gene": "Mettl21e", "fewer than 50 cells in well": "fewer than 50 cells per well; well left out of calls", "outcome": "inactive"}
{"gene": "Trafd1", "Tnf reporter robust z-score": -0.44, "fewer than 50 cells in well": "enough cells in well", "outcome": "inactive"}
{"gene": "Mrpl12", "Tnf reporter robust z-score": 0.54, "fewer than 50 cells in well": "enough cells in well", "outcome": "inactive"}
{"gene": "Fgfr3", "Tnf reporter robust z-score": 0.1, "fewer than 50 cells in well": "enough cells in well", "outcome": "inactive"}
{"gene": "Flvcr2", "Tnf reporter robust z-score": 0.1, "fewer than 50 cells in well": "enough cells in well", "outcome": "inactive"}
{"gene": "Kcnb2", "Tnf reporter robust z-score": -0.09, "fewer than 50 cells in well": "enough cells in well", "outcome": "inactive"}
{"gene": "Hmgcll1", "fewer than 50 cells in well": "fewer than 50 cells per well; well left out of calls", "outcome": "inactive"}
{"gene": "Chrm5", "Tnf reporter robust z-score": -0.14, "fewer than 50 cells in well": "enough cells in well", "outcome": "inactive"}
{"gene": "Exosc4", "Tnf reporter robust z-score": -0.37, "fewer than 50 cells in well": "enough cells in well", "outcome": "inactive"}
{"gene": "Ehd2", "Tnf reporter robust z-score": -0.78, "fewer than 50 cells in well": "enough cells in well", "outcome": "inactive"}
{"gene": "Pigq", "Tnf reporter robust z-score": 1.47, "fewer than 50 cells in well": "enough cells in well", "outcome": "inactive"}
{"gene": "G0s2", "Tnf reporter robust z-score": -1.05, "fewer than 50 cells in well": "enough cells in well", "outcome": "inactive"}
{"gene": "Utp6", "Tnf reporter robust z-score": 0.23, "fewer than 50 cells in well": "enough cells in well", "outcome": "inactive"}
{"gene": "Or4c101", "Tnf reporter robust z-score": -0.07, "fewer than 50 cells in well": "enough cells in well", "outcome": "inactive"}

Targets listed so far whose target name begins with F or f (2):
{"gene": "Fgfr3", "Tnf reporter robust z-score": 0.1, "fewer than 50 cells in well": "enough cells in well", "outcome": "inactive"}
{"gene": "Flvcr2", "Tnf reporter robust z-score": 0.1, "fewer than 50 cells in well": "enough cells in well", "outcome": "inactive"}
